Assay [1] has as its target recombinant uPAR-Biotin (human) (UniProt Q03405). Kind of assay: BLItz, uPAR-Biotin on streptavidin sensor, VH 3 at 500 nM, first association step of the competition run.
Assay [2] has the same target. Kind of assay: summary of the example (BLItz / ELISA). (In general: An ELISA detects its analyte on a solid surface through an enzyme-linked reagent.)

By UniProt entry, the sequences of proteins in these tests, tags left out. Residues count along the entry.
UniProt Q03405, residues 23-303: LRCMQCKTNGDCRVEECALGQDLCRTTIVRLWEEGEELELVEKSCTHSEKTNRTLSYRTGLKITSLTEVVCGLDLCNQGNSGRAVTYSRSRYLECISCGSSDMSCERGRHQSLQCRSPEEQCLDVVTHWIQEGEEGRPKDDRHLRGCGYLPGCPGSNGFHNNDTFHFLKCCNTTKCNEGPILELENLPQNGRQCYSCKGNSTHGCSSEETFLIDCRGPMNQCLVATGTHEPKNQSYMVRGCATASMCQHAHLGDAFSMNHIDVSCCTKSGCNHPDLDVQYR

These are yes or no findings as the source states them, for the method shown. Some entries that bind do so weakly or less than the wild type.

B1: VH 3 (VHH)
VHH: EVQLVESGGGLVQPGGSLRLSCAASGFTFSRYWMSWVRQAPGKALEWIGEINHSGSTNYNPSLKSLVTISRDNSKNTLYLQMNSLRAEDTATYYCARSLVPALSYYYYYGMDVWGQGTTVTVSS
Regarding B1, the binding result in assay [1] and in assay [2] was “binds” throughout.

The values above are taken from patent US20240417485A1.
